Experimental data reported in publication PMC5908803, “Cryo-EM structure of the RC-LH core complex from an early branching photosynthetic prokaryote” (Nature Communications, 2018).
No constants are given. Whether binding was seen depends on the method and setting. A result given as binding can be weak or reduced; the word gives no strength.

Biological target: reaction center L subunit of Roseiflexus castenholzii (Roseiflexus castenholzii)
Experiment: cryo-EM structure; single-particle cryo-EM of the rcRC-LH complex purified whole from native membranes, 3 mg/mL in 0.02% DDM, 150 mM NaCl, 50 mM Tris-HCl pH 8.0; 4.1 Å (subunit X helix seen after low-pass filter to 6 Å); both purified

B1: tetra-heme cytochrome c subunit of the reaction center of Roseiflexus castenholzii (protein, UniProt Q83XC9 4-320)
chain: QPPTLFPEITNTVRGRFYIVAGIISVVMAVASIAIFWWIFYTITPAPAPPLQNPIYVNYTQEPTDYISAESLAAMNAYIQANPQPQAVQVLKGMTTAQISAYMVAQVSGGLKVDCSYCHNIANFAQQDGYPNAAKKVTARKMMLMSADLNQNYTAKLPASVGGYQITCATCHNGKAAGLEPYPIEIMNTLPNDWRLPLELDYPGGLVVTGRKDVSNHEVEQNQFAMYHMNVSMGQGCTFCHNARYFPSYEIAQKNHSIIMLQMTKHIQETYVAPGGRIADGIMAGKSPSCWLCHQGANIPPGAAKPGQVPAVLSSTP
- binding: binds
